Laboratory results as given in PMC8069300.
Results are given in words; binding and its absence hold for the method and conditions named. Binding seen in cells or lysates may run through a third protein. Some binding calls cover weakened binding; strength is not graded here.

By UniProt entry, the sequences of proteins in these tests, tags left out. Where a name states a change or a piece, a line headed by the entry shows the natural chain unless it says otherwise. Residues count along the entry.
UniProt Q13315: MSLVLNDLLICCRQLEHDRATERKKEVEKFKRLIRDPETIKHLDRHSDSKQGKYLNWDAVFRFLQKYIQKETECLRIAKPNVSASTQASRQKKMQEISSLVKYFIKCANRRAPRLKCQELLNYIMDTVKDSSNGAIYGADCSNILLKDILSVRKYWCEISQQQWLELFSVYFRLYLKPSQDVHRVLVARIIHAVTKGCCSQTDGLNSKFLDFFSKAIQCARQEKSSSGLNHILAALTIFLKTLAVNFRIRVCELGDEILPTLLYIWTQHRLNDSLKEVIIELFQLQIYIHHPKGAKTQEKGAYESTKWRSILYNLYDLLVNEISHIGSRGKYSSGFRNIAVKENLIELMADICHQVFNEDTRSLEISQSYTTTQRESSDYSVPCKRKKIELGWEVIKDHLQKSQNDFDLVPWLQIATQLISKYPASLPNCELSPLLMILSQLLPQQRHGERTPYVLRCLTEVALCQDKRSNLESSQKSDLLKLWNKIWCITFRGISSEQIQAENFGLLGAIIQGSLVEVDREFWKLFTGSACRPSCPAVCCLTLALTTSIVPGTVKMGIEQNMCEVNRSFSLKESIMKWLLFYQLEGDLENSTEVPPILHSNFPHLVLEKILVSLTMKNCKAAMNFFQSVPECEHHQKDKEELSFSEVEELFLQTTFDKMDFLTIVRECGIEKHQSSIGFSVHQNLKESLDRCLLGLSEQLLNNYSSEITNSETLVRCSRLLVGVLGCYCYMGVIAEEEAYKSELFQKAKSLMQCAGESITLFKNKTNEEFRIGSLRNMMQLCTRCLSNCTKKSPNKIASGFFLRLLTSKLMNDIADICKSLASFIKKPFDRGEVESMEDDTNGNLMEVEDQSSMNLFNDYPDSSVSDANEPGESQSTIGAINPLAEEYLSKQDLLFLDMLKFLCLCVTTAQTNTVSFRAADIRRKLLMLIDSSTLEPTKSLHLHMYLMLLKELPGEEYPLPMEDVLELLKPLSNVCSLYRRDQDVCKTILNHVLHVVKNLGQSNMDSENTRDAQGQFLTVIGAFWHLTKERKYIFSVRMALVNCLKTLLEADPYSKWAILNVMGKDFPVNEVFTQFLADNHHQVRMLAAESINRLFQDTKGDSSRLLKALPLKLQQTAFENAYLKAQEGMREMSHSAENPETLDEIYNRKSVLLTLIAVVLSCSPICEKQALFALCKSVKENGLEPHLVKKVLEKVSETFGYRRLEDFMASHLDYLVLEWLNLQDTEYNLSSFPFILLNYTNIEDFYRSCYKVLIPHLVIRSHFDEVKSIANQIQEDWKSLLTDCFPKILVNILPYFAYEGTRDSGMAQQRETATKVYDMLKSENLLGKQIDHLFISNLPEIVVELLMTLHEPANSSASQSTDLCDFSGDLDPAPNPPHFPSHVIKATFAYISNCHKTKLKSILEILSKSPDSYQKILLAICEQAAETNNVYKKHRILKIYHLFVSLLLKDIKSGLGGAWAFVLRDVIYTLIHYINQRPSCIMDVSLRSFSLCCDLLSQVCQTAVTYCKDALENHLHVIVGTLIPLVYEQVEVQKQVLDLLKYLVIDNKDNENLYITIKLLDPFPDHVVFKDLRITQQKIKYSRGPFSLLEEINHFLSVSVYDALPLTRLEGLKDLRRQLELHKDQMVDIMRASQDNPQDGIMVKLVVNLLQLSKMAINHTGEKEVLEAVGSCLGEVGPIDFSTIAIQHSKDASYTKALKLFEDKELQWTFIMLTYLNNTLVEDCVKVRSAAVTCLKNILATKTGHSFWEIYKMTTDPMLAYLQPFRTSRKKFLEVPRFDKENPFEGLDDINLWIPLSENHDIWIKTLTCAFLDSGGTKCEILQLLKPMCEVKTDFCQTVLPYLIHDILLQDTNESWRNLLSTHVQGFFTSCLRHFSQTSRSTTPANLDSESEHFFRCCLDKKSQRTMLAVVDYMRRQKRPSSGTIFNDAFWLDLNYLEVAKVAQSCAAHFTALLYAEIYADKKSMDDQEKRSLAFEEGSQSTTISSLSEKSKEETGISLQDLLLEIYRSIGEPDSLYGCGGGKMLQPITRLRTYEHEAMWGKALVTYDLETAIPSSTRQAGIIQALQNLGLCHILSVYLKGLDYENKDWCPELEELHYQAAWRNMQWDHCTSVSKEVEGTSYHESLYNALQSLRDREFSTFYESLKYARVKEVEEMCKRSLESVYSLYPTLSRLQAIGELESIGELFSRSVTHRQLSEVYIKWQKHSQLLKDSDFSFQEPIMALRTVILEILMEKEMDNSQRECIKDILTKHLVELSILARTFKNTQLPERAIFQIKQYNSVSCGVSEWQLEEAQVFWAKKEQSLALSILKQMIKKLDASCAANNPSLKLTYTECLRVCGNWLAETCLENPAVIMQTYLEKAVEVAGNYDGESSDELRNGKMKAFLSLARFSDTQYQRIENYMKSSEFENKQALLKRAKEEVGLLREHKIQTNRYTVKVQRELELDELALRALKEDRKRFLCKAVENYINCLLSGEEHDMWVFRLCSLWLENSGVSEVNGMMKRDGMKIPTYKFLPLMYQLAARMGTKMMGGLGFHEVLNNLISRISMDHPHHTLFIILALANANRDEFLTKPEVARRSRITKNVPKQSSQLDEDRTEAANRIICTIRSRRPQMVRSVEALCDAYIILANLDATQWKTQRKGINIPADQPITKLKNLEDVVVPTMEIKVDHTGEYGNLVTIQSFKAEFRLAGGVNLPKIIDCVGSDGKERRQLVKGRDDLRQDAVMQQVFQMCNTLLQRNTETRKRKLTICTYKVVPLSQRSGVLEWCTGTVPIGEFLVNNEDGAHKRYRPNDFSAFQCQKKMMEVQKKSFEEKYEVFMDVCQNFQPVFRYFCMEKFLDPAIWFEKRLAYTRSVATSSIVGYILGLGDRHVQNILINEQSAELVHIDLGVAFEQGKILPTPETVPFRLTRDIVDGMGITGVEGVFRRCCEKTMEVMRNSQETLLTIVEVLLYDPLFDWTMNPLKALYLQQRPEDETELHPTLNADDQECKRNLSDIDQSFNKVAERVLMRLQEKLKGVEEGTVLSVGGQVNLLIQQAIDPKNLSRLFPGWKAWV
UniProt Q15109, residues 23-404: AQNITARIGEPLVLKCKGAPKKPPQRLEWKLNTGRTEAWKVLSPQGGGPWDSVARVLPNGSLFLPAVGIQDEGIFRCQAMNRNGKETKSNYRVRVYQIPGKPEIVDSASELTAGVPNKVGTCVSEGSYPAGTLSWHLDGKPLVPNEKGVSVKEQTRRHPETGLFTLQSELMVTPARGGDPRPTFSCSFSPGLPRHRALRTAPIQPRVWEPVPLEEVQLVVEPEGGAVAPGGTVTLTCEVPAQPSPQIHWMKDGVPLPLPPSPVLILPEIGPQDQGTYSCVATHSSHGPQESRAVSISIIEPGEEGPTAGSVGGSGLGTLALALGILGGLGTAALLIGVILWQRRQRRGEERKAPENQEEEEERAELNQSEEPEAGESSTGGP

Columns and labels:
[1] = target: phosphorylated ataxia-telangiectasia-mutated kinase (pATM) (human (endogenous in placenta, Sw.71 and Bewo cells)) (UniProt Q13315); test: co-IP; Sw.71 cells, untreated or treated with 1% CSE for 24 h; lysed in RIPA buffer with 50 U/mL Benzonase and protease/phosphatase inhibitors; 300 ug lysate, IP with anti-pATM or anti-MRE11 overnight at 4 C, A/G-agarose beads, western blot for RAGE
[2] = target: T1, double-strand break repair protein MRE11 (human (endogenous in placenta, Sw.71 and Bewo cells)) (UniProt P49959); test: as above
T1 sequence: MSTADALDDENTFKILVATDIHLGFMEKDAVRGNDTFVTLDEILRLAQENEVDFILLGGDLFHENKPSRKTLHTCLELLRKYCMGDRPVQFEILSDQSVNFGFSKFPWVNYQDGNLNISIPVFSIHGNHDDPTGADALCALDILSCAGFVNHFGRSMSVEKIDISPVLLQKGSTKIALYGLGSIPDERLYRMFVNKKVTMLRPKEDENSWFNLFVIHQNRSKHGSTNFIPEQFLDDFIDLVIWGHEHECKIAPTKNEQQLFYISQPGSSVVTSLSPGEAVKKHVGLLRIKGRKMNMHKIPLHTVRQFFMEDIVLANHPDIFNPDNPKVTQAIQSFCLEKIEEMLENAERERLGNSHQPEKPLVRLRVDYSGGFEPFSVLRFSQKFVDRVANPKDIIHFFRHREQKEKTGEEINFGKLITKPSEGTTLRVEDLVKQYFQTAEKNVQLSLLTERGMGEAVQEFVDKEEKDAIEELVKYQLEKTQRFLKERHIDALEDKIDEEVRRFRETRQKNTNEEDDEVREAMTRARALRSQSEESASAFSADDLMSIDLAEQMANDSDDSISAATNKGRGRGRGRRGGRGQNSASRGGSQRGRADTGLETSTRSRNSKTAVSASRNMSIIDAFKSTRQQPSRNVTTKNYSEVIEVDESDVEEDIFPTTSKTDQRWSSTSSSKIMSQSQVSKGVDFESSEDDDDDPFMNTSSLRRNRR

[3] = target: phosphorylated ataxia-telangiectasia-mutated kinase (pATM) (human (endogenous in placenta, Sw.71 and Bewo cells)) (UniProt Q13315); test: co-IP; human placenta samples (control, PE, PTL); immunoprecipitation of pATM or MRE11, western blot for RAGE
[4] = target: T1, double-strand break repair protein MRE11 (human (endogenous in placenta, Sw.71 and Bewo cells)); test: as above
[5] = target: phosphorylated ataxia-telangiectasia-mutated kinase (pATM) (human (endogenous in placenta, Sw.71 and Bewo cells)) (UniProt Q13315); test: co-IP; Bewo cells, untreated or treated with 1% CSE for 24 h; lysed in RIPA buffer with 50 U/mL Benzonase and protease/phosphatase inhibitors; 300 ug lysate, IP with anti-pATM or anti-MRE11 overnight at 4 C, A/G-agarose beads, western blot for RAGE
[6] = target: T1, double-strand break repair protein MRE11 (human (endogenous in placenta, Sw.71 and Bewo cells)); test: as above

Measured: binding

receptor for advanced glycation end-products (RAGE) (from UniProt Q15109 23-404)
binds: all assays above
